The results in this text go back to the supplement of paper PMC9015667.

Where a name gives a salt, the structure may show the parent alone. The list shows a part of the results. Repeats are few or missing, and single values can be far off. Some results are limits rather than exact numbers.

In the assay the test system is M249R (matched melanoma line resistant to BRAF inhibitors). Nature of the assay: reduction in cell viability relative to untreated/vehicle; higher = more growth inhibition. Particulars: 200 nM; 72 h.
Regarding `CN(N=O)C(=O)N[C@@H](C=O)[C@@H](O)[C@H](O)[C@H](O)CO` [Streptozocin], the “reduction in cell viability” value is less than 0%. For `C=CC(=O)Nc1cccc(Oc2nc(Nc3ccc(N4CCN(C)CC4)cc3OC)ncc2Cl)c1`, the “reduction in cell viability” value was less than 0%. As for `COc1c(C)c2c(c(O)c1C/C=C(\C)CCC(=O)OCCN1CCOCC1)C(=O)OC2` [Mycophenolate mofetil], the figure is 20%; as for `CN1C(=O)C[C@@H](C(=O)N[C@@H](Cc2c[nH]cn2)C(=O)N2CCC[C@H]2C(N)=O)NC1=O` [Taltirelin], 5.26%. On to `CCC(C)N(C)C(=O)c1cc2ccccc2c(-c2ccccc2Cl)n1` (stereo not given), for which the “reduction in cell viability” value was less than 0%. The same measure for `COc1cccc(-c2ccc(NC(=O)C3=C(C(=O)O)CCC3)c(F)c2)c1` [Vidofludimus]: less than 0%. The same measure for `CCOCC(O)COc1ccc(NC(=O)CC[S+](C)C)cc1` (stereo not given) [Suplatast tosilate]: less than 0%; for `CCN(C(=O)c1c(O)c2c(Cl)cccc2n(C)c1=O)c1ccccc1` [Laquinimod]: less than 0%; for `CC[C@H]1OC(=O)[C@H](C)[C@@H](O[C@H]2C[C@@](C)(OC)[C@@H](O)[C@H](C)O2)[C@H](C)[C@@H](O[C@@H]2O[C@H](C)C[C@H](N(C)C)[C@H]2O)[C@](C)(O)C[C@@H](C)C(=O)[C@H](C)[C@@H](O)[C@]1(C)O` [Erythromycin]: less than 0%. In the case of `CN(C)Cc1cccc(N=C(c2ccccc2)c2c(O)[nH]c3cc(C(=O)N(C)C)ccc23)c1`, the “reduction in cell viability” value is less than 0%. The same measure for `COc1ccc(-c2ccc3ncc4c(c3c2)n(-c2ccc(N3CCNCC3)c(C(F)(F)F)c2)c(=O)n4C)cn1`: 91.9%. Regarding `COc1c(OCCCN2CCOCC2)ccc2c1N=C(NC(=O)c1cnc(N)nc1)N1CCN=C21`, the “reduction in cell viability” value is less than 0%. `COc1cc(C(=O)NC2CCN(C)CC2)ccc1Nc1ncc2c(n1)N(C1CCCC1)CCC(=O)N2C(C)C`: the “reduction in cell viability” value is less than 0%. The same measure for `CN1CCC(=C2c3ccccc3C=Cc3ccccc32)CC1` [Cyproheptadine hydrochloride]: 5.69%. As for `CC[C@@]1(O)C(=O)OCc2c1cc1n(c2=O)Cc2cc3cc(O)ccc3nc2-1` [10-hydroxycamptothecin], the figure is 57.6%; as for `Nc1nc(-c2nn(Cc3ccccc3F)c3ncccc23)nc(N)c1N1CCOCC1`, less than 0%. For the molecule `CS(=O)(=O)Nc1ccc([N+](=O)[O-])cc1Oc1ccccc1` [Nimesulide], the “reduction in cell viability” value was less than 0%. For `CC(C)[N+]1(C)[C@@H]2CC[C@H]1C[C@@H](OC(=O)C(CO)c1ccccc1)C2` (stereo not given in full) [Ipratropium bromide hydrate], the “reduction in cell viability” value was less than 0%. For `CCCCCNC(=N)N/N=C/c1c[nH]c2ccc(OC)cc12` [Tegaserod maleate], the “reduction in cell viability” value is less than 0%. For `COc1ccc2c(c1)c(CC(=O)O)c(C)n2C(=O)c1ccc(Cl)cc1` [Indomethacin], the “reduction in cell viability” value is less than 0%. As for `C[C@H](NC(=O)c1sccc1OCc1ccc(Cl)cc1)c1ccccc1`, the figure is 13.4%. The same measure for `CN(C)CCN1C(=O)c2cccc3cc(N)cc(c23)C1=O` [Amonafide]: less than 0%; for `CCCn1c(=O)c2nc(C34CC5CC(CC3C5)C4)[nH]c2n(CCC)c1=O` [Rolofylline]: less than 0%. With `CNC(C)C1CCC(N)C(OC2C(N)CC(N)C(OC3OCC(C)(O)C(NC)C3O)C2O)O1` (stereo not given) [Gentamycin sulfate], the “reduction in cell viability” value was less than 0%.

For the molecule `CCCCCCNC(=O)n1cc(F)c(=O)[nH]c1=O` [Carmofur], the “reduction in cell viability” value is less than 0%.
